Data source: PubChem BioAssay AID743448 (Peter MacCallum Cancer Centre, 2014)
Screen: 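Test whether knock-downs sensitising to vorinostat hold across several colon lines but not etoposide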 (follow-up of hits). Cell system: four human colon cancer cell lines: HCT116-VR (vorinostat-resistant HCT116 derivative), SW480, SW620 and LIM1215. Reagent: siRNA pool against human genes, 40 nM siRNA pool. Time to read-out: drug added two days after transfection, read one day later. Challenge: vorinostat 2.5 µM on one half of each plate, etoposide 5 µM on the other half. Cell line and drug panel: SW620 cells with etoposide. Measured: 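Caspase 3/7 activity by luminescence and live-cell viability by fluorescence, each given as a ratio to mock-transfected wells and as a robust z-score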. Direction: caspase ratio to mock: higher = more caspase activity than mock; viability ratio to mock: higher = more live cells than mock. Rule for the call: 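a row is a hit if caspase relative to mock is 1.6 or above or viability relative to mock is 0.75 or below; wells dying heavily without drug are not called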. Meaning of the calls: active = caspase or viability hit in this panel; inactive = no change, or unhealthy well.
This is a random part of the 106 reagents, under one of the conditions tested. 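Calls are per line and drug panel including etoposide, not vorinostat-specific; gene picks needed hits in two or more extra lines with vorinostat versus etoposide.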 Not all columns of the deposit are shown.

{"gene":"NUP93 (nucleoporin 93)","caspase ratio to mock":1.05,"viability ratio to mock":0.87,"outcome":"inactive"}
{"gene":"NUP54 (nucleoporin 54)","caspase ratio to mock":0.97,"viability ratio to mock":0.82,"outcome":"inactive"}
{"gene":"NUP133 (nucleoporin 133)","caspase ratio to mock":1.36,"viability ratio to mock":0.77,"outcome":"inactive"}
{"gene":"TGM5 (transglutaminase 5)","caspase ratio to mock":0.82,"viability ratio to mock":0.98,"outcome":"inactive"}
{"gene":"TOX4 (TOX high mobility group box family member 4)","caspase ratio to mock":0.69,"viability ratio to mock":0.88,"outcome":"inactive"}
{"gene":"EIF1AX (eukaryotic translation initiation factor 1A X-linked)","caspase ratio to mock":0.88,"viability ratio to mock":0.75,"outcome":"active"}
{"gene":"SCRT2 (scratch family transcriptional repressor 2)","caspase ratio to mock":1.18,"viability ratio to mock":0.93,"outcome":"inactive"}
{"gene":"CNOT3 (CCR4-NOT transcription complex subunit 3)","caspase ratio to mock":1.21,"viability ratio to mock":0.96,"outcome":"inactive"}
{"gene":"BDP1 (BDP1 general transcription factor IIIB subunit)","caspase ratio to mock":0.71,"viability ratio to mock":0.88,"outcome":"inactive"}
{"gene":"CCDC59 (coiled-coil domain containing 59)","caspase ratio to mock":1.69,"viability ratio to mock":0.9,"outcome":"active"}
{"gene":"SERTAD1 (SERTA domain containing 1)","caspase ratio to mock":1.71,"viability ratio to mock":0.91,"outcome":"active"}
{"gene":"PNN (pinin, desmosome associated protein)","caspase ratio to mock":1.58,"viability ratio to mock":0.86,"outcome":"inactive"}
{"gene":"C1orf52 (chromosome 1 open reading frame 52)","caspase ratio to mock":0.74,"viability ratio to mock":0.84,"outcome":"inactive"}
{"gene":"INTS6L (integrator complex subunit 6 like)","caspase ratio to mock":0.95,"viability ratio to mock":0.84,"outcome":"inactive"}
{"gene":"MICALL2 (MICAL like 2)","caspase ratio to mock":2.26,"viability ratio to mock":1,"outcome":"active"}
{"gene":"PLAG1 (PLAG1 zinc finger)","caspase ratio to mock":0.94,"viability ratio to mock":0.96,"outcome":"inactive"}
{"gene":"CCNK (cyclin K)","caspase ratio to mock":1.29,"viability ratio to mock":0.76,"outcome":"inactive"}
{"gene":"GNG8 (G protein subunit gamma 8)","caspase ratio to mock":1.55,"viability ratio to mock":0.64,"outcome":"active"}
{"gene":"EIF2S1 (eukaryotic translation initiation factor 2 subunit alpha)","caspase ratio to mock":0.8,"viability ratio to mock":0.62,"outcome":"active"}
{"gene":"POLR2K (RNA polymerase II, I and III subunit K)","caspase ratio to mock":1.13,"viability ratio to mock":0.8,"outcome":"inactive"}
{"gene":"DDX19B (DEAD-box helicase 19B)","caspase ratio to mock":0.84,"viability ratio to mock":1.01,"outcome":"inactive"}
{"gene":"RBBP8 (RB binding protein 8, endonuclease)","caspase ratio to mock":2.41,"viability ratio to mock":0.98,"outcome":"active"}
{"gene":"HSPA6 (heat shock protein family A (Hsp70) member 6)","caspase ratio to mock":0.97,"viability ratio to mock":0.93,"outcome":"inactive"}
{"gene":"PCP4 (Purkinje cell protein 4)","caspase ratio to mock":1.34,"viability ratio to mock":0.93,"outcome":"inactive"}
{"gene":"C22orf15 (chromosome 22 open reading frame 15)","caspase ratio to mock":1.09,"viability ratio to mock":0.94,"outcome":"inactive"}
{"gene":"THAP3 (THAP domain containing 3)","caspase ratio to mock":1.5,"viability ratio to mock":0.84,"outcome":"inactive"}
{"gene":"EIF3L (eukaryotic translation initiation factor 3 subunit L)","caspase ratio to mock":1.13,"viability ratio to mock":0.94,"outcome":"inactive"}
{"gene":"CSE1L (chromosome segregation 1 like)","caspase ratio to mock":1.64,"viability ratio to mock":0.96,"outcome":"active"}
